Data taken from PubChem BioAssay AID1347075 (National Center for Advancing Translational Sciences (NCATS), 2019).
The whole screen tested about 400,000 compounds, of which about 5,500 (1.4%) were called active. This list was built around the results that the source calls inconclusive (neither active nor inactive); the mix of calls is not that of the screen. Calls follow the shape of the dose curve; as a rule, active = well fitted cell-killing curve with a large enough effect; inconclusive = small, poorly fitted or top-dose-only effect, or effect the other way; inactive = flat fitted curve, though single readings scatter. Potencies of inconclusive entries are doubtful fits and often do not repeat.

assay: qHTS assay for MDR1-selective chemotherapeutics: Primary screen using the parental adenocarcinoma cell KB-3-1; conditions: KB-3-1 viability, CellTiter-Glo ATP luminescence, 72 h; activity change, negative = cytotoxic: at 46.1 µM (top of the series); also: nearly all actives have a fitted effect of over 60% in size
Procedure, shortened: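 Viability of parental KB-3-1 cells, measured by CellTiter-Glo luminescence, followed a 72 h incubation at 37 °C with pinned compounds in phenol-red-free DMEM containing 10% FBS.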
% is scaled to controls: 0 for no effect and ±100 for the full control effect; potency is read from the fitted curve at half-maximal effect.

Compound	Potency	activity change, negative = cytotoxic
COc1cc2oc(=O)ccc2cc1-c1c(OC)ccc2ccc(=O)oc12	inconclusive: 29.1 µM [cytotoxic, single point]	
O=c1[nH][nH]c2c1[C@H](C1CCCC1)O[C@H](CCc1ccccc1)C2		inactive: -15.9%
Cc1cccc(Nc2nc(N3CCCC3)nc(N3CCCC3)n2)c1		inactive: -5.09%
COc1ccc(C(C(=O)NC(C)(C)C)N(C(=O)CCC(=O)Nc2cc(C)on2)c2cccc(C)c2C)cc1 (stereo not drawn)		inactive: 5.84%
O=C(CCOc1ccccc1)Nc1ccc(S(=O)(=O)N2CCCC2)cc1	inconclusive: 29.1 µM [cytotoxic, single point]	
O=S(=O)(c1ccccc1)c1cnc(-c2cccnc2)nc1-c1ccc(Cl)cc1Cl	inconclusive: 16.4 µM [cytotoxic, single point]	
O=C(NCCc1ccc2c(c1)OCCO2)c1cc(S(=O)(=O)N2CCCC2)ccc1Br	inconclusive: 20.6 µM [cytotoxic, partial curve, poor fit]	
COc1ccc(-n2c(-c3cc(-c4ccccc4)sc3N)n[nH]c2=S)cc1		inconclusive: -18.9%
S=C(NCCSCc1ccc(Cl)cc1Cl)Nc1ccccc1	inconclusive: 29.1 µM [cytotoxic, single point]	
COc1cc(NC(=O)[C@@H](NC(=O)c2ccco2)C(C)C)c(OC)cc1NC(=O)c1ccccc1		inactive: 10.9%
CCOC(=O)CC(NS(=O)(=O)c1cc(-c2cc(C)no2)ccc1C)c1ccc(C)cc1 (stereo not drawn)		inactive: -4.39%
Cc1c(C(=O)N2CCN(c3ccccc3)CC2)sc2ncnc(N3CCN(c4ccccn4)CC3)c12		inactive: -20.4%
CCOc1ccc2nc(NC(=O)c3nc(SCc4ccc(C)cc4)ncc3Cl)sc2c1	inconclusive: 18.4 µM [cytotoxic, single point]	
CCC1CCc2sc(C(=O)NC3CCN(Cc4ccccc4)CC3)cc2C1 (stereo not drawn)	inconclusive: 23.1 µM [cytotoxic, partial curve, poor fit]	
CCOc1ncccc1C(=O)OCC(=O)Nc1ccc(-c2nc3ccc(C)cc3s2)cc1	inconclusive: 11.6 µM [cytotoxic, single point]	
Cc1cccc(C)c1NC(=O)CN(C)S(=O)(=O)c1ccc2[nH]c3c(c2c1)CCCC3	inconclusive: 29.1 µM [cytotoxic, single point]	
CCOc1ccccc1/C=N/NC(=O)c1nnn(-c2nonc2N)c1CN1CCCC1		inactive: 0.323%
COc1ccc(N2CCN(C(=O)CN3C(=O)NC(C)(c4ccc5ccccc5c4)C3=O)CC2)cc1 (stereo not drawn)	active: 23.1 µM	
CC(=O)Nc1ccccc1OCCOc1ccc(Br)cc1	inconclusive: 20.6 µM [cytotoxic, partial curve]	
CCOc1ccc(NC(=O)Cc2cccc3ccccc23)c([N+](=O)[O-])c1	inconclusive: 29.1 µM [cytotoxic, single point]	
COc1ccc(NC(=O)c2[nH]c(C)c(C(C)=O)c2C)cc1	inconclusive: 2.06 µM [rising, full curve, poor fit]	
Cc1cc(O)c(-c2n[nH]c3c2C(c2cccc(O)c2)N(Cc2cccnc2)C3=O)cc1Cl (stereo not drawn)	inconclusive: 29.1 µM [cytotoxic, single point]	

Compound	Potency	activity change, negative = cytotoxic
CCn1c(SCC(=O)Nc2sccc2C(N)=O)nnc1C1CC1	inconclusive: 0.92 µM [cytotoxic, full curve, poor fit]	
COc1cccc(NC(=O)N2CCCCCC2)c1	inconclusive: 32.6 µM [rising, partial curve, poor fit]	
O=C(NC(c1ccccc1)c1c(O)ccc2ccccc12)c1ccccc1Cl (stereo not drawn)	inconclusive: 20.6 µM [cytotoxic, single point]	
C=CCNC(=O)c1onc(CSc2ccc(Cl)cc2)c1C(=O)O	inconclusive: 20.6 µM [cytotoxic, single point]	
CCN(c1ccccc1)S(=O)(=O)c1ccc(C(=O)Nc2ccncc2)cc1	inconclusive: 20.6 µM [cytotoxic, single point]	
CCOC(=O)c1c(NC(=O)C(C)Sc2cn(CCNC(=O)c3ccc(OC)cc3)c3ccccc23)sc2c1CCC2 (stereo not drawn)		inactive: -7.42%
COc1ccccc1Nc1nc(-c2ccc3c(c2)NC(=O)CO3)cs1	inconclusive: 25.9 µM [cytotoxic, single point]	
O=C(NCc1ccc(Cl)cc1)c1cnc(N2CCOCC2)c2ccccc12	inconclusive: 2.59 µM [cytotoxic, full curve]	
Cc1ccc2nc(SCc3ccc([N+](=O)[O-])cc3)nc(C)c2c1	inconclusive: 0.058 µM [cytotoxic, full curve]	
COc1ccc(Cc2c(-c3ccc(Cl)cc3)nc3c(C)cc(Br)cn23)c(C)c1	inconclusive: 29.1 µM [cytotoxic, single point]	
Cc1cccc(N2C(=O)N(Cc3ccc(C(C)(C)C)cc3)c3ccccc3S2(=O)=O)c1		inactive: -2.23%
N#CC(C#N)=C1SC(=Nc2ccccc2)C(=Nc2ccccc2)N1c1ccccc1	active: 20.6 µM	
CCCN(CC(=O)Nc1ccccc1OC)C(=O)Cc1ccccc1F		inactive: 7.93%
COc1cccc(Nc2nc(CN3CCOCC3)nc3sc4c(c23)CCCC4)c1	inconclusive: 29.1 µM [cytotoxic, single point]	
O=C(/C=C/c1ccc(Cl)cc1)N1CCN(c2ccccn2)CC1	inconclusive: 25.9 µM [rising, single point]	
CCOC(=O)c1c(C)c(C(=O)NC2CCCCCC2)c(C)n1C		inactive: -1.11%
C[C@@H]1CCCCO[C@@H](CN(C)S(=O)(=O)c2cn(C)cn2)[C@@H](C)CN([C@H](C)CO)C(=O)c2cc(N(C)C)ccc2O1		inactive: 15.7%
C=CCC1NS(=O)(=O)OC(CCc2ccccc2)C1O (stereo not drawn)	inconclusive: 16.4 µM [rising, single point]	
COCCN1C(=O)Cc2c1nc(N)c1c(N)nc(N3CCN(c4ccc(F)cc4)CC3)c(C#N)c21		inactive: 17%
Cc1cc(C)cc(-n2c(SC(C)C(=O)NCc3ccc4c(c3)OCO4)nc3ccccc3c2=O)c1 (stereo not drawn)	inconclusive: 18.4 µM [cytotoxic, single point]	
Cc1ccc(C(=O)O)cc1-c1ccc(/C=C2\SC(=O)N(CC(=O)Nc3ccccc3)C2=O)o1		inactive: -6.51%

2 entries from above, reformatted:
Compound | Potency | activity change, negative = cytotoxic
CCn1c(SCC(=O)Nc2sccc2C(N)=O)nnc1C1CC1 | inconclusive: 0.92 µM [cytotoxic, full curve, poor fit] | 
COc1cccc(NC(=O)N2CCCCCC2)c1 | inconclusive: 32.6 µM [rising, partial curve, poor fit] | 
